Experiment [1] addresses T1, GSK2 (rice) (UniProt Q60EZ2).
T1 sequence: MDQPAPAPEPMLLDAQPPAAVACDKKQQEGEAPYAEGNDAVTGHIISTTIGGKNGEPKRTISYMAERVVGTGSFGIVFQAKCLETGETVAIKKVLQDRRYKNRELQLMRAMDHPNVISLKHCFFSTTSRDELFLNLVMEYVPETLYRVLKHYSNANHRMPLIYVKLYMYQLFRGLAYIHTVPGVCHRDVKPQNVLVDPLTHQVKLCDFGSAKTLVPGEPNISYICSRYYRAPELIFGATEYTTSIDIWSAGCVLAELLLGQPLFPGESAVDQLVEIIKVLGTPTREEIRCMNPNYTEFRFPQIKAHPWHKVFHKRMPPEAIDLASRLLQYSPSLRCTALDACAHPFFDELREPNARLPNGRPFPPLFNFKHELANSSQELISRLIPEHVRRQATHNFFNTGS
The experiment can be described thus: two-hybrid.

Experiment [2] has as its target T2, OsBZR1 (rice) (UniProt Q7XI96).
T2 sequence: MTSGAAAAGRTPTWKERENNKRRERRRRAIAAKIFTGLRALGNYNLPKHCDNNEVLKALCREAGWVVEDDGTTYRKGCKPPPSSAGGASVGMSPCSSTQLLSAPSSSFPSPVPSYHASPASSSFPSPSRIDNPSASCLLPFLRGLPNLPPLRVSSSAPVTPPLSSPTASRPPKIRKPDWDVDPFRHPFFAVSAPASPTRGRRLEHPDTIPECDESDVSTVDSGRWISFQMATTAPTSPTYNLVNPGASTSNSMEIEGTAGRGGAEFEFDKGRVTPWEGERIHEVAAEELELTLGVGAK
The experiment can be described thus: two-hybrid.

In experiment [3] the target is T3, GST-OsBZR1 (rice) (UniProt Q7XI96).
T3 sequence: T2 sequence
Briefly: pull-down.

The target of experiment [4] is T4, GST-GSK2 (rice) (UniProt Q60EZ2).
T4 sequence: T1 sequence
Briefly: pull-down.

Experiment [5] deals with TAF2-C (C-terminus of transcription initiation factor TFIID subunit 2) (rice). The experiment can be described thus: two-hybrid.
Experiment [6] has as its target POW1 (put on weight 1) (rice). Briefly: two-hybrid.
Experiment [7] addresses POW1 fused to a half of Venus YFP (BiFC) (rice). The experiment can be described thus: split reporter.

These are yes or no findings as the source states them, for the method shown. For some of these results: Binding calls can cover weak binding; strength is not graded here. For some of these results: In cells and extracts the contact can be indirect. For some of these results: Tags and fused reporters may be left off the sequences shown.

For GL7 (rice), the values for the binding result in experiment [1] and in experiment [2] were “binds” and “no binding”, respectively. For GL7-YFP (rice), the values for the binding entry in experiment [3] and in experiment [4] were “no binding” and “binds”, respectively.

B1: OsBZR1 (protein, UniProt Q7XI96 1-298)
chain: T2 sequence
As to B1, the binding result in experiment [5] and in experiment [6] was “no binding” in each case.

B2: OsBZR1 fused to a half of Venus YFP (BiFC) (protein, UniProt Q7XI96 1-298)
chain: T2 sequence
As for B2, the binding result in experiment [7] was “no binding”.

The values are drawn from article doi:10.1101/830620.
